Laboratory results reported in publication PMC11762487.
No constants are given. Whether binding was seen depends on the method and setting. Binding seen in cells or lysates may run through a third protein. Some entries that bind do so weakly or less than the wild type.

The chains behind the UniProt entries cited, without tags or fusion partners.
UniProt Q9UKB1: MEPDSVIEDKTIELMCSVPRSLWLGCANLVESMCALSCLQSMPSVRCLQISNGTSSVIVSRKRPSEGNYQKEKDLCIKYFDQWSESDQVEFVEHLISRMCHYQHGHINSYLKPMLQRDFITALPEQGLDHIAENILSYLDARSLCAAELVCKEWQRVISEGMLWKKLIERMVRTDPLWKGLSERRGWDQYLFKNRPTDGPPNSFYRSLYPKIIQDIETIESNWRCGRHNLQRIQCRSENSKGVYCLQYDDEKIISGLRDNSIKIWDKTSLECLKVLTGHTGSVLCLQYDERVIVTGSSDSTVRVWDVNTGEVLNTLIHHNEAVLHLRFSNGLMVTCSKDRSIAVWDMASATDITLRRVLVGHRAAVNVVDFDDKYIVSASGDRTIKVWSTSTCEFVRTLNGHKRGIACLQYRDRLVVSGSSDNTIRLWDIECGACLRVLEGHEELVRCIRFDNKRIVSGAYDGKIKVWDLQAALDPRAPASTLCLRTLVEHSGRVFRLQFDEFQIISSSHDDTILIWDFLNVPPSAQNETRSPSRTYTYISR

Molecular target: T1, Splicing factor proline- and glutamine-rich (SFPQ) (human (endogenous in HEK293T)) (UniProt P23246)
T1 sequence: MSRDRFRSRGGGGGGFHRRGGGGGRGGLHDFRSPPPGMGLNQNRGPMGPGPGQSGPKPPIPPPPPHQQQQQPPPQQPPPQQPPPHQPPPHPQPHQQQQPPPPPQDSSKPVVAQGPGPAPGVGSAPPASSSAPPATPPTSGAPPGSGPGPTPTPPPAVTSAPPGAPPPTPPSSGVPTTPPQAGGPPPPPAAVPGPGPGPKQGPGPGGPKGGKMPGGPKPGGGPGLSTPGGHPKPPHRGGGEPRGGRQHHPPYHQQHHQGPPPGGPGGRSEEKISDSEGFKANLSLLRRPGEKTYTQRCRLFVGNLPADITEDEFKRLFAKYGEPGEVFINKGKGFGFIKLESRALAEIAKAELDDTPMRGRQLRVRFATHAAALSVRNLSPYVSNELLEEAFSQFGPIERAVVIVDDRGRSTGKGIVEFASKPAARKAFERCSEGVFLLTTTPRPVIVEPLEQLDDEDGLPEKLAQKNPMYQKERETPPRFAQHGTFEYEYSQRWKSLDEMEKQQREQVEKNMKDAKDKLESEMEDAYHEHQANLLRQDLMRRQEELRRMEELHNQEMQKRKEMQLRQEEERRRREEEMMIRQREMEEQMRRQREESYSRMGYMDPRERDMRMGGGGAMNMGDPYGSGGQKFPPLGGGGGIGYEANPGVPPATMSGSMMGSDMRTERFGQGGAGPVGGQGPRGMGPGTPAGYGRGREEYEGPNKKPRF
Test: co-IP; co-IP in HEK293T cells; also after coculture with exosomes from circMAN1A2-overexpressing HGC27 cells (binding decreased) or sh-circMAN1A2 HGC27 cells (binding increased)

binding: binds
Substance: F-box and WD repeat domain containing 11 (FBXW11) (from UniProt Q9UKB1 1-542)
